Results published in US20250269047A1.
These are yes or no findings as the source states them, for the method shown. Some binding calls cover weakened binding; strength is not graded here.

Target: T1, full-length human B7-H3 (UniProtKB-Q5ZPR3, 1 aa-534 aa) transiently expressed on HEK293 cells (human) (UniProt Q5ZPR3)
T1 sequence (looked up): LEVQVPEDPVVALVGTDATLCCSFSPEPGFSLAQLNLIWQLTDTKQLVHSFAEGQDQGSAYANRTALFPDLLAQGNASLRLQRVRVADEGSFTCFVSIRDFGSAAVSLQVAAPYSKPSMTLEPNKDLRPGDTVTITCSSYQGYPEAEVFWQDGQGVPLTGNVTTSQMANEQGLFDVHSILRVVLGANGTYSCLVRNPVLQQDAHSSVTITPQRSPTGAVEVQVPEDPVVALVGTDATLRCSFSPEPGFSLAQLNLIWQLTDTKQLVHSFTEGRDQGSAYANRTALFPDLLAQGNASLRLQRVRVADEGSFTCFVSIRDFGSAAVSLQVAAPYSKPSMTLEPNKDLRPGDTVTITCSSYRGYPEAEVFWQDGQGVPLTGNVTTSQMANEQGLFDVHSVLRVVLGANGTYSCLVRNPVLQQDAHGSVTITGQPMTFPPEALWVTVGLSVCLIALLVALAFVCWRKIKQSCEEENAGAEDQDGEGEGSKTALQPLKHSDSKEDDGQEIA
Test: FACS on 293/hB7-H3 cells, 1, 0.1 and 0.01 µg/ml

binding: binds
B1: ch17A3 (antibody, human IgG1, V domains shown)
VH: QVQLQQSGPELVRPGVSVKISCKGSGYTFTDYALHWVKQSHAKSPQWIGLINTYSSNTNYNQKFKDKATMTVDKSSSTAYMELARLTSEDSAIYYCARGITAVVGTRYYAMDYWGQGTSVTVSS
VL: NIVLTQSPTTLSVTPGDTVSLSCRASQSISNNLHWYQQRSHESPRLIIKYTSQNISGIPSRFSGSGSGTDFTLSINSVETEDFGMYFCQQSYSWPLTFGAGTKLELKR
